Measurements published in PMC12040169 (PLOS Biology, 2025).
The other results are listed elsewhere or left out.

Tested on: T1, CTL2-GFP (C. trachomatis L2/434/Bu, GFP-expressing)
T1 construct: L2/434/Bu, GFP-expressing
Set-up: species or system HeLa; Intracellular C. trachomatis growth in HeLa cells, bulk GFP fluorescence relative to DMSO
Conditions: bulk GFP, single well; 28.5 h, 10 µM; inhibitor

Structure (SMILES) | % of control remaining [%]
Cn1ccnc1C(NC(=O)Cc1ccc(O)cc1)c1ccccc1 (centres unmarked) [CBK283723] | 134.305
CCc1cc(CNS(=O)(=O)c2cc(C)ccc2F)on1 [CBK283064] | 80.3544
C/C(=N\NC(=O)Cc1ccc([N+](=O)[O-])cc1[N+](=O)[O-])c1ccccc1O [CBK261175] | 103.759
COc1cccc(C2(NC(=O)c3c(C)noc3C)CCCC2)c1 [CBK283659] | 105.136
O=C(O)CSc1nc2ccc(NC(=O)c3ccccc3Cl)cc2s1 [CBK299791] | 125.046
O=C(O)Cc1ccc(NC(=O)c2cccnc2C(=O)O)cc1 [CBK267397] | 102.503
CCNC(=S)N[C@H]1CC[C@@]2(Cc3ccc(OC)cc3)CCN(C)[C@H]2C1 [CBK004257] | 105.583
O=C(CCn1c(C(F)(F)F)cc2cccnc21)N1CCOCC1 [CBK284869] | 131.976
CCC(C)(C)c1ccc(S(=O)(=O)N2CCN(Cc3ccc(C(C)=O)cc3)CC2)cc1 [CBK062826] | 72.4401
O=C1CCCN1CCOc1nccnc1-c1ccsc1 [CBK106759] | 123.882
CCS(=O)(=O)N1CCCCCC1c1nn(C)cc1Cl (centres unmarked) [CBK284672] | 119.589
Cc1cc(NS(=O)(=O)c2ccc(Oc3ccc(-c4ccccc4)cc3)nc2)no1 [CBK295343] | 113.188
CC(=O)Nc1ccc(-c2ccc(C(=O)NCc3ccc(S(C)(=O)=O)cc3)cn2)cc1 [CBK158860] | 102.004
Cc1cc(C)nc(N(C#N)CC(=O)N2c3ccccc3CCc3ccccc32)n1 [CBK266509] | 108.126
COCc1nc(C)c(C(=O)NC2CCCN(c3ccn(C)n3)C2=O)s1 (centres unmarked) [CBK306497] | 112.917
O=C(CCCN1C(=O)c2cccc3cccc(c23)C1=O)Nc1cccnc1 [CBK262560] | 100
COc1ccccc1N1CCN(C(=O)Nc2ccc(Cl)cc2)CC1 [CBK155597] | 121.362
COc1ccc(-c2nn(-c3ccccc3)cc2/C=C2/SC(=S)N(Cc3ccccc3)C2=O)c(C)c1 [CBK265107] | 122.497
CC(C)C(NC(=O)N1c2ccccc2NC(=O)C1C(C)C)C(=O)O (centres unmarked) [CBK286670] | 92.405
O=C(NCc1cccnc1)c1ccccc1NS(=O)(=O)c1ccc(F)cc1 [CBK269754] | 149.26
CCOc1cc(/C=N/Nc2nnc(C)n2N)ccc1O [CBK027460] | 7.066
O=C1NCCNC(=O)C2(CCCCOc3ccccc31)CCNCC2 [CBK292074] | 95.2502
O=S1(=O)CCC(Sc2nncc3ccccc23)C1 (centres unmarked) [CBK021586] | 121.625
CCC(c1ccc2c(c1)CCO2)N1CCN(Cc2nc(C)no2)CC1 (centres unmarked) [CBK304237] | 92.8974
CC(Cc1ccccn1)NC(=O)Cn1ccnc1 (centres unmarked) [CBK282069] | 109.047
O=c1[nH]c2ncc(-c3ccncc3)nc2n1CC1CC1 [CBK064539] | 214.442
O=C(c1ccncc1)N1CCc2cc(-c3csc(C4CC4)n3)ccc21 [CBK288618] | 136.629

Structure (SMILES) | % of control remaining [%]
O=C(c1ccco1)N1CCN(c2ccc(-c3cccc4cccnc34)cn2)CC1 [CBK037640] | 145.757
NC(=O)c1cc(C2CCCN(CC(=O)NCc3cccs3)C2)n[nH]1 (centres unmarked) [CBK305361] | 105.271
CCN1CCN(C(=O)c2cccn2C)CC1 [CBK200248] | 113.211
COc1ccc(O)c(C(=O)c2cnn(C(=O)c3ccc(C)cc3)c2)c1 [CBK297546] | 138.732
Cc1ccc(S(=O)(=O)NC2CCC(C(=O)O)CC2)cc1 (centres unmarked) [CBK286929] | 127.466
CC1=C[C@@H](CNS(=O)(=O)c2ccccc2)[C@H](C(C)C)C[C@H]1CC(=O)N1CCCC1 [CBK289054] | 64.4471
Cc1cc(C)n(CCC(=O)N2CCCCC2C(=O)O)n1 (centres unmarked) [CBK304678] | 112.066
Cc1cc(C)n(CCCn2cncc2-c2ccc3c(c2)CC(C)N3C)n1 (centres unmarked) [CBK281773] | 164.746
CC(C)(C)SCCNC(=S)NCCO [CBK020686] | 107.415
CNC(=O)C1(Cc2ccccc2-c2ccccc2)CCN(C(=O)CCC2CCCC2)CC1 [CBK285696] | 136.337
CCN(CC)CCNC(=O)c1cc(=O)c2ccccc2o1 [CBK010691] | 115.346
CN(C)CCN(C)c1cncc(-c2ccc3ccccc3c2)n1 [CBK037146] | 163.324
O=C(CCCc1ccccc1)Nc1cccnc1N1CCNCC1 [CBK028256T] | 89.6116
COCCNC(=O)C1CCN(c2nc3c(-c4cccc(C)c4)csc3c(=O)[nH]2)CC1 [CBK215629] | 122.275
COc1ccc(CNC(=S)Nc2cccc(C(F)(F)F)c2)cc1OC [CBK266977] | 151.935
O=C(CSc1nnc2scc(-c3ccccc3)n12)Nc1nsc(-c2ccc(Cl)cc2)n1 [CBK266576] | 138.402
COCCNc1nc(-c2cccc3cccnc23)cn2ccnc12 [CBK037314] | 182.154
O=C(CCN1CCCC1Cn1cncn1)NCCc1ccccc1 (centres unmarked) [CBK305677] | 102.48
Cn1c(=O)c2c(nc(Oc3ccccc3Cl)n2Cc2cccc(C(F)(F)F)c2)n(C)c1=O [CBK265940] | 126.31
COc1ccc(C(=O)N[C@@H]2CC[C@@]3(c4ccc(OC)c(OC)c4)CCN(C)[C@H]3C2)c(OC)c1 [CBK074247T] | 116.496
Fc1ccc(-c2cncc(NCCc3ccncc3)n2)c(F)c1 [CBK065810] | 120.813
Oc1cccc(/C=N/c2nnn[nH]2)c1 [CBK260977] | 116.338
CC(NC(=O)c1ccccc1)c1nnc(SCC(=O)N2CCOCC2)n1C (centres unmarked) [CBK269647] | 120.734
CN1CCN(C2=NC(=O)CC(C(=O)Nc3ccccc3)N2)CC1 (centres unmarked) [CBK267884] | 121.626
Cn1cccc1CCC(=O)NC1CCN(Cc2ccccc2Cl)CC1 [CBK306814] | 158.644
CN(C)CCNC(=S)Nc1ccc([N+](=O)[O-])cc1 [CBK266964] | 106.269
Cc1ccc(C)c(NC(=O)C2CN(S(=O)(=O)c3ccccc3)CCN2S(=O)(=O)c2ccccc2)c1 (centres unmarked) [CBK267349] | 82.1177

Five entries drawn at random from the list so far, as already listed:
Structure (SMILES) | % of control remaining [%]
Cn1c(=O)c2c(nc(Oc3ccccc3Cl)n2Cc2cccc(C(F)(F)F)c2)n(C)c1=O [CBK265940] | 126.31
CCN(CC)CCNC(=O)c1cc(=O)c2ccccc2o1 [CBK010691] | 115.346
CC(NC(=O)c1ccccc1)c1nnc(SCC(=O)N2CCOCC2)n1C (centres unmarked) [CBK269647] | 120.734
Cc1cc(C)n(CCC(=O)N2CCCCC2C(=O)O)n1 (centres unmarked) [CBK304678] | 112.066
CCN1CCN(C(=O)c2cccn2C)CC1 [CBK200248] | 113.211

(next part)

Structure (SMILES) | % of control remaining [%]
CCN1CCCC1CNC(=O)c1cccc(Cl)c1 (centres unmarked) [CBK262621] | 100
CCNC(=O)N1CC2(CCN(Cc3ccc(Cl)c(Cl)c3)CC2)c2ccccc21 [CBK126690] | 121.357
COc1cc(NC(=O)COc2ccc3ccccc3c2)c(C(=O)O)cc1OC [CBK264181] | 113.702
CC(=O)NC1(c2ccccc2F)CCN(CC(=O)N(C)C)CC1 [CBK283618] | 131.114
OC1(c2cccnc2)CCN(CC2(c3ccc(Cl)cc3)CC2)CC1 [CBK282780] | 102.98
O=C(c1ccc2ncccc2c1)N1CCC(c2ccncc2)CC1 [CBK283684] | 140.539
c1ccc(Nc2ccccc2Nc2ccccn2)nc1 [CBK261806] | 100
CCc1nc2ccc(C(=O)N3CCC(O)(Cc4ccccc4)CC3)cn2c1N(CC)C(=O)CCC1CCCC1 [CBK146854] | 100
CN1CCN(C(=O)c2ccc(-c3cncc(-c4ccc(O)cc4)n3)c(F)c2)CC1 [CBK126752] | 149.171
CCC(O)CNS(=O)(=O)c1ccc(OC(F)(F)F)cc1 (centres unmarked) [CBK043557] | 122.905
COC(=O)c1cc(C#N)c(=O)n(CC(O)COc2cccc(Br)c2)c1 (centres unmarked) [CBK304984] | 58.4262
O=C(O)CN(c1ccccc1[N+](=O)[O-])S(=O)(=O)c1ccccc1 [CBK263158] | 100
NS(=O)(=O)c1ccc(NC(=S)NC(=O)c2ccc(Cl)cc2Cl)cc1 [CBK266265] | 130.41
Cn1nc(NC(=O)COCC(=O)O)c2ccccc21 [CBK057114] | 119.592
CN(C(=O)CCC(=O)O)c1ccccc1C(=O)O [CBK261429] | 120.243
O=C(Cc1ccccc1F)N1CCC(c2n[nH]c3ncccc23)CC1 [CBK284908] | 105.945
O=C1NC2(CCN(C(=O)c3ccco3)CC2)Nc2ccccc21 [CBK284762] | 77.8484
CC(C)Nc1cc(SC2CCCCC2)ncn1 [CBK107163] | 106.812
CCCC12CN3CC(CCC)(CN(C1)C3c1ccc([N+](=O)[O-])cc1)C2=O (centres unmarked) [CBK264481] | 139.113
C=C(C)Cn1c(-c2ccccc2C)nnc1S(=O)(=O)CC(C)C [CBK200074] | 121.231
C=CCn1c(SCC(=O)Nc2nc3ccc(OCC)cc3s2)nc2cc(C(=O)O)ccc2c1=O [CBK297520] | 82.1661
Cc1nn(C)c(N2CCNCC2)c1NC(=O)C1=CC(=O)CC(C)(C)O1 [CBK050362T] | 100
CN(Cc1ccc(-c2ccc(S(C)(=O)=O)cc2)nc1)C1CCN(C(=O)Cc2cccc(C(F)(F)F)c2)CC1 [CBK164104T] | 69.962
COc1cc(/C=N/NC(=O)CSc2n[nH]c(=O)[nH]c2=O)cc(OC)c1O [CBK263527] | 127.59
Nc1ncc(Br)nc1N1CCC[C@@H]1CO [CBK085450] | 135.619
O=[N+]([O-])c1c(N(CCO)CCO)cc(Cl)c2nonc12 [CBK261446] | 117.202
